These are yes or no findings as the source states them, for the method shown. Binding seen in cells or lysates may run through a third protein. Binding calls can cover weak binding; strength is not graded here.
What was measured:
[1] = target: 3XFLAG-OFD1 Y282S (human) (UniProt O75665); assay: co-IP; HEK293 lysates with 3XFLAG-OFD1 wild type or mutated in the eIF4E binding site (Y282S, Y282D); eIF4E detected by WB, eIF4E/OFD1 ratio quantified
[2] = target: 3XFLAG-OFD1 Y282D (human) (UniProt O75665); assay: as above

Amino acid sequences for entries named in this document (tags omitted). A change or cut given only in a name is not applied to a line headed by its entry.
UniProt O75665: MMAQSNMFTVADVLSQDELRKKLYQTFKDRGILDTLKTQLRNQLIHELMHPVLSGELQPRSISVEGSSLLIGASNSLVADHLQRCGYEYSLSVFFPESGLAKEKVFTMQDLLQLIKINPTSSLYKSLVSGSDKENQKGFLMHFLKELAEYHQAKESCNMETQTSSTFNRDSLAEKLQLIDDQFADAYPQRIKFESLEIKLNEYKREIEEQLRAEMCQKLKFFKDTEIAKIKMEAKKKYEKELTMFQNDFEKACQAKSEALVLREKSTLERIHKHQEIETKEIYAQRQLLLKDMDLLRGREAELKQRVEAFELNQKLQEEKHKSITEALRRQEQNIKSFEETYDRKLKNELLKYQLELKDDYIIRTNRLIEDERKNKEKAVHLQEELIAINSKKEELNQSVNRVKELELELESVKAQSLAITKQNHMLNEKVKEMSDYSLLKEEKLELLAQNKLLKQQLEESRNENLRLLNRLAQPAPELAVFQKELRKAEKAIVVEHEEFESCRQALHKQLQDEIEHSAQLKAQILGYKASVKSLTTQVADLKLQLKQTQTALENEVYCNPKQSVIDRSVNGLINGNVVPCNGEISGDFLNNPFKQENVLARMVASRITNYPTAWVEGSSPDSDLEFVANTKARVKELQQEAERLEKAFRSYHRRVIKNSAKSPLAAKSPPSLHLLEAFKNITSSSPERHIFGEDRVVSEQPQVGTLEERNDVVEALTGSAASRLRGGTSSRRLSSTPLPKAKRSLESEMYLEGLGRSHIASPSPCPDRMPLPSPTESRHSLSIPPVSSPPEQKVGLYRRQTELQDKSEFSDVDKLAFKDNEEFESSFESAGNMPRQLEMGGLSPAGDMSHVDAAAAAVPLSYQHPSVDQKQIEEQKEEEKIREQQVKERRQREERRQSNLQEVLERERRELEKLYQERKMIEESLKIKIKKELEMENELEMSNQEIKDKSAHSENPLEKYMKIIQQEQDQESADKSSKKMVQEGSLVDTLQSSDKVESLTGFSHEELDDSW
UniProt P06730: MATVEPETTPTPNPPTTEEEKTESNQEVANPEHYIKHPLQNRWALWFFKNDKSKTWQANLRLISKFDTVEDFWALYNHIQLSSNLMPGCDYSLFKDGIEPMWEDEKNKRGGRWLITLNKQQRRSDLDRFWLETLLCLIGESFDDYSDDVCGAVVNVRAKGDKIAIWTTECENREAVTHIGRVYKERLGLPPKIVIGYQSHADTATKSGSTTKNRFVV

binding [1]: binds
binding [2]: binds
Substance: eIF4E (from UniProt P06730 1-217)
